# Experimental data: PubChem BioAssay AID1259425 (University of Nebraska Medical Center, 2018)
# Test: 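Seek colon cancer weak points whose silencing resembles KSR1 loss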 (primary screen)
# Cells: HCT116 human colon cancer cells
# Knock-down reagent: siRNA pool against human genes, 50 nM siRNA
# Measurement: 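After 50 nM siRNA pool, branched-DNA assay measures six marker transcripts per well, minus blank, normalised to the geometric mean of two housekeeping transcripts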
# Direction: BNIP3L mRNA: higher = more BNIP3L transcript after knockdown; NDRG1 mRNA: higher = more NDRG1 transcript after knockdown; BNIP3 mRNA: higher = more BNIP3 transcript after knockdown; ALDOC mRNA: higher = more ALDOC transcript after knockdown
# This is an unselected part of about 14,000 reagents tested. Reagents against one gene are numbered here. Not all columns of the deposit are shown. Reagent sequences are not shown. Not given: the time to read-out.
Target gene,pool no.,"BNIP3L mRNA, set 1","NDRG1 mRNA, set 1","BNIP3 mRNA, set 1","ALDOC mRNA, set 1"
TRIM55,1,0.152,0.537,0.291,0.0687
GJA3,1,0.267,1.41,0.697,0.0763
ADAM17,1,0.0799,0.175,0.259,0.0135
CDR2,1,0.248,0.588,0.601,0.0406
FNTB,1,0.118,0.0588,0.356,0.0412
SIX4,1,0.0784,0.705,0.305,0.0173
ANO1,1,0.0655,0.0971,0.245,0.0271
CHD1L,1,0.103,0.169,0.267,0.0155
ZNF227,1,0.143,0.177,0.297,0.0241
HLA-DPB1,1,0.0841,0.137,0.303,0.0138
PPP2R1B,1,0.0569,0.122,0.236,0.0145
ZNF14,1,0.127,0.0748,0.301,0.0209
IFT25,1,0.062,0.183,0.269,0.0356
UBASH3B,1,0.222,0.272,0.398,0.0599
MDM4,1,0.0968,0.157,0.279,0.0254
DPPA4,1,0.109,0.151,0.306,0.051
LRP3,1,0.108,0.19,0.274,0.024
IL4R,1,0.0478,0.0687,0.141,0.0309
ECE2,1,0.231,0.136,0.288,0.0371
ECE2,2,0.126,0.505,0.232,0.158
RGS3,1,0.192,0.513,0.278,0.109
SUFU,1,0.0533,0.109,0.214,0.00623
PTEN,1,0.0606,0.173,0.341,0.0469
CYP2A6,1,0.108,0.138,0.296,0.0145
GPR35,1,0.17,0.638,0.472,0.092
CTSO,1,0.187,0.351,1.02,0.0298
HACD2,1,0.0955,0.513,0.271,0.0339
TUBA4A,1,0.124,0.388,0.419,0.0118
ZC3HC1,1,0.134,0.0889,0.353,0.0395
ELMO1,1,0.111,0.11,0.268,0.0254
PDZD2,1,0.112,0.285,0.261,0.0148
MCM6,1,0.0592,0.138,0.226,0.0117
RBM7,1,0.222,0.0397,0.237,0.0623
LRP1,1,0.0245,0.278,0.224,0.00837
PPP1R14A,1,0.0782,0.0512,0.25,0.0209
STAR,1,0.112,0.15,0.207,0.0207
CDC34,1,0.0637,0.0827,0.136,0.0327
WDR46,1,0.139,1.22,0.114,0.019
WSB1,1,0.0567,0.251,0.349,0.0434
ALDH1A2,1,0.115,0.274,0.394,0.013
SLC6A5,1,0.122,0.198,0.263,0.0366
KL,1,0.168,0.212,0.341,0.0539
MINDY3,1,0.113,0.174,0.328,0.0435
UBR7,1,0.0678,0.162,0.291,0.0173
SOX8,1,0.0756,0.234,0.354,0.0254
ZFP64,1,0.0911,0.597,0.467,0.0295
POP5,1,0.149,0.209,0.288,0.0482
SUGP2,1,0.198,0.183,0.366,0.0512
RASD2,1,0.236,0.233,0.625,0.0186
ZXDC,1,0.105,0.089,0.276,0.0319

7 successive records from above:
Target gene,pool no.,"BNIP3L mRNA, set 1","NDRG1 mRNA, set 1","BNIP3 mRNA, set 1","ALDOC mRNA, set 1"
CYP2A6,1,0.108,0.138,0.296,0.0145
GPR35,1,0.17,0.638,0.472,0.092
CTSO,1,0.187,0.351,1.02,0.0298
HACD2,1,0.0955,0.513,0.271,0.0339
TUBA4A,1,0.124,0.388,0.419,0.0118
ZC3HC1,1,0.134,0.0889,0.353,0.0395
ELMO1,1,0.111,0.11,0.268,0.0254
